Measured values reported in patent publication US20220041718A1 (AUTOLUS, published 2022).
Substitutions are numbered along the chain they refer to. In names and notes the source's numbering stands. No constants are given. Whether binding was seen depends on the method and setting. Some entries that bind do so weakly or less than the wild type.

B1: hJovi-1 variant IgG, VH T28K, Y32F, A100N; VL unmutated (antibody, V domains shown)
VH: QVQLVQSGAEVKKPGASVKVSCKASGYKFTGFVMHWVRQAPGQGLEWMGFINPYNDDIQSNERFRGRVTMTRDTSISTAYMELSRLRSDDTAVYYCARGNGYNFDGAYRFFDFWGQGTMVTVSS
VL: DIVMTQSPLSLPVTPGEPASISCRSSQRLVHSNGNTYLHWYLQKPGQSPRLLIYRVSNRFPGVPDRFSGSGSGTDFTLKISRVEAEDVGVYYCSQSTHVPYTFGQGTKLEIK
notes: IgG format; also called anti-TRBC2 triple mutant
B2: hJovi-1 variant IgG, VH T28K, Y32F, A100N, N103F; VL N35K (antibody, V domains shown)
VH: B1 VH with N103F
VL: B1 VL with N35K
notes: IgG format
B3: hJovi-1 variant IgG, VH N103F, T28K, Y32F, A100N; VL N35F (antibody, V domains shown)
VH: B1 VH with N103F
VL: B1 VL with N35F
notes: IgG format
B4: hJovi-1 variant IgG, VH T28K, G31R, Y32F, A100N; VL unmutated (antibody, V domains shown)
VH: B1 VH with G31R
VL: B1 VL
notes: IgG format
B5: hJovi-1 variant IgG, VH T28K, Y32F, A100N, N103M; VL N35R (antibody, V domains shown)
VH: B1 VH with N103M
VL: B1 VL with N35R
notes: IgG format
B6: hJovi-1 variant IgG, VH N103S, T28K, Y32F, A100N; VL N35Y (antibody, V domains shown)
VH: B1 VH with N103S
VL: B1 VL with N35Y
notes: IgG format
B7: hJovi-1 variant IgG, VH N103W, T28K, Y32F, A100N; VL N35K (antibody, V domains shown)
VH: B1 VH with N103W
VL: B1 VL with N35K
notes: IgG format
B8: hJovi-1 variant IgG, VH T28K, Y32F, A100N, Y102F, N103M; VL N35K (antibody, V domains shown)
VH: B1 VH with Y102F, N103M
VL: B1 VL with N35K
notes: IgG format
B9: hJovi-1 variant IgG, VH N103F, T28K, Y32F, A100N; VL N35Y (antibody, V domains shown)
VH: B1 VH with N103F
VL: B1 VL with N35Y
notes: IgG format
B10: hJovi-1 variant IgG, VH N103S, T28K, Y32F, A100N; VL N35F (antibody, V domains shown)
VH: B1 VH with N103S
VL: B1 VL with N35F
notes: IgG format
B11: hJovi-1 variant IgG, VH T28K, Y32F, A100N, N103F; VL unmutated (antibody, V domains shown)
VH: B1 VH with N103F
VL: B1 VL
notes: IgG format
B12: hJovi-1 variant IgG, VH T28K, Y32F, A100N, N103W; VL unmutated (antibody, V domains shown)
VH: B1 VH with N103W
VL: B1 VL
notes: IgG format
B13: hJovi-1 variant IgG, VH N103L, T28K, Y32F, A100N; VL N35F (antibody, V domains shown)
VH: B1 VH with N103L
VL: B1 VL with N35F
notes: IgG format
B14: hJovi-1 variant IgG, VH N103L, T28K, Y32F, A100N; VL N35M (antibody, V domains shown)
VH: B1 VH with N103L
VL: B1 VL with N35M
notes: IgG format
B15: hJovi-1 variant IgG, VH T28K, Y32F, A100N, Y102F, N103M; VL N35F (antibody, V domains shown)
VH: B1 VH with Y102F, N103M
VL: B1 VL with N35F
notes: IgG format
B16: hJovi-1 variant IgG, VH N103S, T28K, Y32F, A100N; VL N35M (antibody, V domains shown)
VH: B1 VH with N103S
VL: B1 VL with N35M
notes: IgG format
B17: hJovi-1 variant IgG, VH T28K, Y32F, A100N, Y102F; VL unmutated (antibody, V domains shown)
VH: B1 VH with Y102F
VL: B1 VL
notes: IgG format
B18: hJovi-1 variant IgG, VH N103F, T28K, Y32F, A100N; VL N35M (antibody, V domains shown)
VH: B1 VH with N103F
VL: B1 VL with N35M
notes: IgG format
B19: hJovi-1 variant IgG, VH N103L, T28K, Y32F, A100N; VL N35Y (antibody, V domains shown)
VH: B1 VH with N103L
VL: B1 VL with N35Y
notes: IgG format
B20: hJovi-1 variant IgG, VH T28K, Y32F, A100N, A107S; VL unmutated (antibody, V domains shown)
VH: B1 VH with A107S
VL: B1 VL
notes: IgG format
B21: hJovi-1 variant IgG, VH T28K, Y32F, A100N, N103H; VL unmutated (antibody, V domains shown)
VH: B1 VH with N103H
VL: B1 VL
notes: IgG format
B22: hJovi-1 variant IgG, VH T28K, Y32F, A100N, N103A; VL unmutated (antibody, V domains shown)
VH: B1 VH with N103A
VL: B1 VL
notes: IgG format
B23: hJovi-1 variant IgG, VH N103S, T28K, Y32F, A100N; VL N35K (antibody, V domains shown)
VH: B1 VH with N103S
VL: B1 VL with N35K
notes: IgG format
B24: hJovi-1 variant IgG, VH N103M, T28K, Y32F, A100N; VL N35F (antibody, V domains shown)
VH: B1 VH with N103M
VL: B1 VL with N35F
notes: IgG format
B25: hJovi-1 variant IgG, VH T28K, Y32F, A100N, Y102L, N103W; VL N35K (antibody, V domains shown)
VH: B1 VH with Y102L, N103W
VL: B1 VL with N35K
notes: IgG format
B26: hJovi-1 variant IgG, VH N103W, T28K, Y32F, A100N; VL N35F (antibody, V domains shown)
VH: B1 VH with N103W
VL: B1 VL with N35F
notes: IgG format
B27: hJovi-1 variant IgG, VH N103E, T28K, Y32F, A100N; VL N35M (antibody, V domains shown)
VH: B1 VH with N103E
VL: B1 VL with N35M
notes: IgG format
B28: hJovi-1 variant IgG, VH T28K, Y32F, A100N; VL N35F (antibody, V domains shown)
VH: B1 VH
VL: B1 VL with N35F
notes: IgG format
B29: hJovi-1 variant IgG, VH G31S, T28K, Y32F, A100N; VL unmutated (antibody, V domains shown)
VH: B1 VH with G31S
VL: B1 VL
notes: IgG format
B30: hJovi-1 variant IgG, VH N103L, T28K, Y32F, A100N; VL N35R (antibody, V domains shown)
VH: B1 VH with N103L
VL: B1 VL with N35R
notes: IgG format
B31: hJovi-1 variant IgG, VH T28K, Y32F, A100N, N103Q; VL unmutated (antibody, V domains shown)
VH: B1 VH with N103Q
VL: B1 VL
notes: IgG format
B32: hJovi-1 variant IgG, VH T28K, Y32F, A100N, N103M; VL N35Y (antibody, V domains shown)
VH: B1 VH with N103M
VL: B1 VL with N35Y
notes: IgG format
B33: hJovi-1 variant IgG, VH N103S, T28K, Y32F, A100N; VL N35R (antibody, V domains shown)
VH: B1 VH with N103S
VL: B1 VL with N35R
notes: IgG format
B34: hJovi-1 variant IgG, VH N103W, T28K, Y32F, A100N; VL N35R (antibody, V domains shown)
VH: B1 VH with N103W
VL: B1 VL with N35R
notes: IgG format
B35: hJovi-1 variant IgG, VH T28K, Y32F, A100N, N103S; VL unmutated (antibody, V domains shown)
VH: B1 VH with N103S
VL: B1 VL
notes: IgG format
B36: hJovi-1 variant IgG, VH T28K, Y32F, A100N, Y102F, N103M; VL N35R (antibody, V domains shown)
VH: B1 VH with Y102F, N103M
VL: B1 VL with N35R
notes: IgG format
B37: hJovi-1 variant IgG, VH T28K, Y32F, A100N, N103L; VL unmutated (antibody, V domains shown)
VH: B1 VH with N103L
VL: B1 VL
notes: IgG format
B38: hJovi-1 variant IgG, VH T28K, Y32F, A100N, Y102F; VL N35R (antibody, V domains shown)
VH: B1 VH with Y102F
VL: B1 VL with N35R
notes: IgG format
B39: hJovi-1 variant IgG, VH T28K, Y32F, A100N, Y102L, N103M; VL N35R (antibody, V domains shown)
VH: B1 VH with Y102L, N103M
VL: B1 VL with N35R
notes: IgG format
B40: hJovi-1 variant IgG, VH T28K, Y32F, A100N, Y102L, N103W; VL N35R (antibody, V domains shown)
VH: B1 VH with Y102L, N103W
VL: B1 VL with N35R
notes: IgG format
B41: hJovi-1 variant IgG, VH T28K Y32F A100N; VL R55K (antibody, V domains shown)
VH: B1 VH
VL: B1 VL with R55K
notes: IgG format
B42: hJovi-1 variant IgG, VH T28K, Y32F, A100N, N103E; VL unmutated (antibody, V domains shown)
VH: B1 VH with N103E
VL: B1 VL
notes: IgG format
B43: hJovi-1 variant IgG, VH T28K, Y32F, A100N, N103M; VL N35M (antibody, V domains shown)
VH: B1 VH with N103M
VL: B1 VL with N35M
notes: IgG format
B44: hJovi-1 variant IgG, VH N103W, T28K, Y32F, A100N; VL N35M (antibody, V domains shown)
VH: B1 VH with N103W
VL: B1 VL with N35M
notes: IgG format
B45: hJovi-1 variant IgG, VH N103L, T28K, Y32F, A100N; VL N35K (antibody, V domains shown)
VH: B1 VH with N103L
VL: B1 VL with N35K
notes: IgG format
B46: hJovi-1 variant IgG, VH G31R, Y32F, A100N; VL unmutated (antibody, V domains shown)
VH: B1 VH with K28T, G31R
VL: B1 VL
notes: IgG format
B47: hJovi-1 variant IgG, VH T28K, Y32F, A100N, N103M; VL unmutated (antibody, V domains shown)
VH: B1 VH with N103M
VL: B1 VL
notes: IgG format
B48: hJovi-1 variant IgG, VH T28K, Y32F, A100N, N103Y; VL unmutated (antibody, V domains shown)
VH: B1 VH with N103Y
VL: B1 VL
notes: IgG format

Biological target: Recombinant purified TRBC2 (human)
Assay: SPR

binding | Binder
binds | B1
binds | B2
binds | B3
binds | B4
binds | B5
binds | B6
binds | B7
binds | B8
binds | B9
binds | B10
binds | B11
binds | B12
binds | B13
binds | B14
binds | B15
binds | B16
binds | B17
binds | B18
binds | B19
binds | B20
binds | B21
binds | B22
binds | B23
binds | B24

binding | Binder
binds | B25
binds | B26
binds | B27
binds | B28
binds | B29
binds | B30
binds | B31
binds | B32
binds | B33
binds | B34
binds | B35
binds | B36
binds | B37
binds | B38
binds | B39
binds | B40
binds | B41
binds | B42
binds | B43
binds | B44
binds | B45
binds | B46
binds | B47
binds | B48
